Experimental data: PubChem BioAssay AID1224826 (NIAID, 2016)
Purpose: 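Knock-downs that raise or lower Tnf reporter signal after endotoxin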 (primary screen). System: RAW264.7 G9 macrophages from mouse bearing reporters for p65 (GFP) and the Tnf promoter (mCherry). Reagents: siRNA pool against mouse genes, 100 nM. Duration: 16 h of LPS stimulation, after 2 days of siRNA transfection. Treatment: bacterial lipopolysaccharide (Salmonella minnesota R595), 10 ng/ml. Measured: 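Nuclear mCherry signal of the Tnf promoter reporter measured by imaging after background removal, scaled to each plate median and turned into robust z-scores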. Scale: Tnf reporter robust z-score: higher = stronger Tnf promoter reporter signal after LPS. Rule for the call: 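Called active when robust z-score is at most -1.3, matching the median of the Tlr4 knock-down control, or over 3; control wells and wells with under 50 cells never active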. Calls: active = Tnf reporter clearly lowered or raised; inactive = no clear change in Tnf reporter.
The deposit covers about 17,000 reagents; shown is an unselected part. About 1,110 of them (6.6%) were called active. 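Active means lowered or raised reporter signal; replicate intensities are raw and not normalised per plate.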 Further read-outs or replicates are left out here. Reagent sequences are not shown.

{"Target gene": "Dtd1", "PubChem SID": "SID315472175", "Tnf reporter robust z-score": -1, "fewer than 50 cells in well": "enough cells in well", "outcome": "inactive"}
{"Target gene": "Dsg1c", "PubChem SID": "SID315477707", "Tnf reporter robust z-score": 1.02, "fewer than 50 cells in well": "enough cells in well", "outcome": "inactive"}
{"Target gene": "5730405M06RIK", "PubChem SID": "SID315482015", "Tnf reporter robust z-score": 0.12, "fewer than 50 cells in well": "enough cells in well", "outcome": "inactive"}
{"Target gene": "Ercc3", "PubChem SID": "SID315466552", "Tnf reporter robust z-score": 0.09, "fewer than 50 cells in well": "enough cells in well", "outcome": "inactive"}
{"Target gene": "Supv3l1", "PubChem SID": "SID315481670", "Tnf reporter robust z-score": -0.86, "fewer than 50 cells in well": "enough cells in well", "outcome": "inactive"}
{"Target gene": "Tmc4", "PubChem SID": "SID315481722", "fewer than 50 cells in well": "fewer than 50 cells per well; well left out of calls", "outcome": "inactive"}
{"Target gene": "Csrp2", "PubChem SID": "SID315466178", "Tnf reporter robust z-score": 0.22, "fewer than 50 cells in well": "enough cells in well", "outcome": "inactive"}
{"Target gene": "Dnajc18", "PubChem SID": "SID315475349", "fewer than 50 cells in well": "fewer than 50 cells per well; well left out of calls", "outcome": "inactive"}
{"Target gene": "Morn4", "PubChem SID": "SID315478471", "Tnf reporter robust z-score": 2.1, "fewer than 50 cells in well": "enough cells in well", "outcome": "inactive"}
{"Target gene": "Tdpoz3", "PubChem SID": "SID315481888", "Tnf reporter robust z-score": -0.63, "fewer than 50 cells in well": "enough cells in well", "outcome": "inactive"}
{"Target gene": "H2bc3", "PubChem SID": "SID315481043", "Tnf reporter robust z-score": -1.8, "fewer than 50 cells in well": "enough cells in well", "outcome": "active"}
{"Target gene": "Mdh1", "PubChem SID": "SID315467964", "Tnf reporter robust z-score": -1.57, "fewer than 50 cells in well": "enough cells in well", "outcome": "active"}
{"Target gene": "Ripply3", "PubChem SID": "SID315477231", "Tnf reporter robust z-score": -0.24, "fewer than 50 cells in well": "enough cells in well", "outcome": "inactive"}
{"Target gene": "Bsdc1", "PubChem SID": "SID315476223", "Tnf reporter robust z-score": 1.86, "fewer than 50 cells in well": "enough cells in well", "outcome": "inactive"}
{"Target gene": "Cabp7", "PubChem SID": "SID315477416", "Tnf reporter robust z-score": -0.78, "fewer than 50 cells in well": "enough cells in well", "outcome": "inactive"}
{"Target gene": "Kcnf1", "PubChem SID": "SID315481830", "Tnf reporter robust z-score": 0.29, "fewer than 50 cells in well": "enough cells in well", "outcome": "inactive"}
{"Target gene": "Vegfc", "PubChem SID": "SID315469995", "Tnf reporter robust z-score": 1, "fewer than 50 cells in well": "enough cells in well", "outcome": "inactive"}
{"Target gene": "Mov10l1", "PubChem SID": "SID315475827", "Tnf reporter robust z-score": 2.24, "fewer than 50 cells in well": "enough cells in well", "outcome": "inactive"}
{"Target gene": "Cd247", "PubChem SID": "SID315465861", "Tnf reporter robust z-score": 0.27, "fewer than 50 cells in well": "enough cells in well", "outcome": "inactive"}
{"Target gene": "C2", "PubChem SID": "SID315465695", "Tnf reporter robust z-score": 0.51, "fewer than 50 cells in well": "enough cells in well", "outcome": "inactive"}
{"Target gene": "Shmt1", "PubChem SID": "SID315469227", "Tnf reporter robust z-score": 0.74, "fewer than 50 cells in well": "enough cells in well", "outcome": "inactive"}
